Data from patent US5866397A, “Human protein tyrosine phosphatase OB protein” (Merck & Co., Inc., priority 1997, dated 1999).

System: osteoblasts and bone marrow cells
Details: ALN 10^-5 M, orthovanadate 10^-5 M, PAO 2×10^-7 M

NCCCC(O)(P(=O)(O)O)P(=O)(O)O [alendronate]
toxicity for osteoblasts or bone marrow cells: no apparent toxicity
